Measured values published in PubChem BioAssay AID720504 (National Center for Advancing Translational Sciences (NCATS), 2013).
Among all 360,000 compounds or so, about 10,000 (2.8%) were called active. This list was built around the results that the source calls inconclusive (neither active nor inactive); the mix of calls is not that of the screen. Calls follow the shape of the dose curve; as a rule, active = well fitted inhibition curve with a large enough effect; inconclusive = small, poorly fitted or top-dose-only effect; inactive = flat fitted curve, though single readings scatter. A potency beside an inconclusive call is a rough fit, not a confirmed value.
% is scaled to controls: 0 for no effect and ±100 for the full control effect; potency is read from the fitted curve at half-maximal effect.
Also: nearly all actives have a fitted effect of over 65% in size.
For max response, negative = inhibition in this document: series mostly up to about 57 µM.

The chains behind the UniProt entries cited, without tags or fusion partners.
UniProt P53350, whole entry, looked up: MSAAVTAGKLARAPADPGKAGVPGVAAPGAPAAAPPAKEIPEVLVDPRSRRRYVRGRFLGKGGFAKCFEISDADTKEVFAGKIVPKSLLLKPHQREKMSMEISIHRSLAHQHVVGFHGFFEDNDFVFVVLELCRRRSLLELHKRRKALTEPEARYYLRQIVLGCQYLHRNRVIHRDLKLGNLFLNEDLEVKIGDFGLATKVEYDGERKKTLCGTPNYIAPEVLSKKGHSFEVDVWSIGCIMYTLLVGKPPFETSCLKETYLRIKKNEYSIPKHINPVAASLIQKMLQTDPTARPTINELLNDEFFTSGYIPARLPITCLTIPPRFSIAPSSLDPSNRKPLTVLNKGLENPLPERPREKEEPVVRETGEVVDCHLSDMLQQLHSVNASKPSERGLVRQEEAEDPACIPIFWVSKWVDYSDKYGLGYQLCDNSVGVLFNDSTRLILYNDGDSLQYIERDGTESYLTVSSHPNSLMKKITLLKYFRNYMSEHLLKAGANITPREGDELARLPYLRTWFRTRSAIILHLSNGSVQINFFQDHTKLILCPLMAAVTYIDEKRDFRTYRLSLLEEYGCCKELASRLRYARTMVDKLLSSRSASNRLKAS

These compounds were tested against Serine/threonine-protein kinase PLK1 (Homo sapiens) (UniProt P53350) (assay: qHTS for Inhibitors of PLK1-PDB (polo-like kinase 1 - polo-box domain): Primary Screen). Conditions: Plk1 PBD binding of FITC phosphopeptide, fluorescence polarization.
In the case of `CSc1ccc(/C=C/C(=O)Nc2ccccc2)cc1`, the max response, negative = inhibition is reported as inactive: -3.61%. For `CC(=O)OCCn1c([N+](=O)[O-])cnc1C=[N+]([O-])C1CCCCC1`, the max response, negative = inhibition was inactive: -1.19%. For `COc1ccccc1S(=O)(=O)N1CCC(C(=O)O)(c2ccccc2)CC1`, the max response, negative = inhibition was inactive: -12.9%. `CCCCCCC1CC(CCc2nc(=S)[nH][nH]2)C(=O)O1` (centres undefined) was tested, and the Potency was inconclusive: 11.9 µM [inhibitor, partial curve]. With `Cc1cc(SCC(=O)c2ccccc2)nc(=O)[nH]1` the Potency was inconclusive: 33.6 µM [inhibitor, partial curve]. For `CC1=NN(c2ccccc2)C(=O)/C1=C\c1ccc(Oc2ccc([N+](=O)[O-])cc2[N+](=O)[O-])cc1`, the Potency was active: 1.89 µM. For `CCCCCc1nnc(NC(=O)C2CCCO2)s1` (centres undefined), the Potency was inconclusive: 26.7 µM [inhibitor, single point]. For `Fc1ccc(-c2csc(NC(=S)Nc3ccccc3)n2)cc1`, the Potency was inconclusive: 21.2 µM [inhibitor, partial curve]. In the case of `CCC(=O)N(Cc1ccco1)c1nc(C(=O)Nc2ccc(Cl)cc2)c(C)s1`, the Potency is reported as inconclusive: 29.9 µM [inhibitor, partial curve]. With `COCCn1c(-c2ccc(OC)cc2)cnc1N` the Potency was inconclusive: 23.8 µM [inhibitor, single point]. With `Nc1c(C(=O)CSc2n[nH]c(-c3ccccc3)n2)c(=O)[nH]c(=O)n1C1CC1` the max response, negative = inhibition was inactive: -5.6%. For `S=c1[nH]cc(Oc2ccc(Cl)cc2Cl)c(=S)[nH]1`, the Potency was inconclusive: 21.2 µM [inhibitor, partial curve]. For `COc1c(C)cccc1C(=O)Nc1cc(-c2nn3c(C)nnc3s2)ccc1C`, the Potency was inconclusive: 23.8 µM [inhibitor, partial curve]. With `Cc1ccc(C(=O)O)cc1NC(=S)NC(=O)c1ccc(-c2ccc(Cl)cc2)o1` the Potency was inconclusive: 9.47 µM [inhibitor, partial curve]. In the case of `Cc1cc(C(=O)Nc2sc3c(c2C#N)CCCC3)no1`, the Potency is reported as active: 26.7 µM. `CCCCCc1nnc(NC(=O)Cc2cccs2)s1` was tested, and the Potency was inconclusive: 29.9 µM [inhibitor, single point]. For `CCOc1ccc(/C=N/n2c(C3CCCCC3)n[nH]c2=S)cc1`, the Potency was inconclusive: 23.8 µM [inhibitor, single point]. For `O=C(c1ccc(S(=O)(=O)N2CCOCC2)cc1)N(c1cccc(Cl)c1)C1C=CS(=O)(=O)C1` (centres undefined), the Potency was inconclusive: 21.2 µM [inhibitor, single point]. In the case of `CCn1ccc(C(=O)NC2C(=O)N3C(C(=O)O)=C(C)CSC23)n1` (centres undefined), the Potency is reported as inconclusive: 37.7 µM [inhibitor, single point]. For `N#CCCn1c(SCC(=O)c2c[nH]c3ccccc23)nc2ccccc21`, the Potency was inconclusive: 23.8 µM [inhibitor, single point]. `CCCC[C@@H]1C=C(C(=O)O)[C@H](c2ccc(Cl)cc2)N1S(=O)(=O)c1ccc(C)cc1` was tested, and the max response, negative = inhibition was inconclusive: -32.6% [inhibitor]. With `Cc1cc(Nc2ccccc2)n(-c2ccc(Br)cc2)n1` the Potency was inconclusive: 16.8 µM [inhibitor, partial curve]. For `O=C(CSc1ccccn1)Nc1nonc1[N+](=O)[O-]`, the Potency was inconclusive: 21.2 µM [inhibitor, partial curve]. `CC(C)CN1C=C2C(=O)C(C)(OC(=O)CCc3ccccc3)C(=O)C=C2C=C1c1ccc(C#N)cc1` (centres undefined) was tested, and the Potency was inconclusive: 26.7 µM [inhibitor, partial curve]. `CC(=O)Nc1cccc(NC(=O)Nc2cccc3ccccc23)c1` was tested, and the max response, negative = inhibition was inactive: -12.4%. With `Cc1c(C(=O)O)sc2nc(SCC(=O)Nc3ccc(S(=O)(=O)NCCCC(=O)O)cc3)[nH]c(=O)c12` the Potency was inconclusive: 4.23 µM [inhibitor, full curve]. `O=C(Nc1ccc(S(=O)(=O)Nc2cnc3ccccc3n2)cc1)c1ccccc1Br` was tested, and the max response, negative = inhibition was inactive: -5.45%. With `Cc1cc(Br)ccc1SCC(=O)OCC(=O)NCc1ccco1` the Potency was inconclusive: 7.52 µM [inhibitor, partial curve]. With `CCOC(=O)c1ccc(N2Cc3ccccc3C2=NC(=O)c2cccs2)cc1` the max response, negative = inhibition was inactive: -7.84%. For `CCCCn1c(N)c(N(CCC(C)C)C(=O)C2=NN(c3cc(C)ccc3C)C(=O)CC2)c(=O)[nH]c1=O`, the max response, negative = inhibition was inactive: -10.9%. In the case of `Cc1cccc(N2C(=O)c3cccc4cccc(c34)C2=O)c1`, the max response, negative = inhibition is reported as inactive: -5.21%. For `Cc1cccc(-n2c(N)c(C(=O)N3CCN(C)CC3)sc2=S)c1`, the Potency was active: 1.89 µM. `COc1cccc(C(=O)C[n+]2ccccc2/C=N/O)c1` was tested, and the max response, negative = inhibition was inactive: -5.79%. For `O=[N+]([O-])c1ccc(NNS(=O)(=O)c2cc(Cl)ccc2Cl)nc1`, the Potency was inconclusive: 33.6 µM [inhibitor, single point]. `Nc1cccc(C(=O)N/N=C/c2ccsc2)c1` was tested, and the Potency was inconclusive: 37.7 µM [inhibitor, single point]. For `Cc1cc(CNC(=O)[C@H]2C[C@@H]2[C@H](NP(=O)(c2ccccc2)c2ccccc2)c2ccccc2)nn1C`, the Potency was inconclusive: 23.8 µM [inhibitor, single point]. With `CCN(c1ccccc1)S(=O)(=O)c1ccc(C(=O)Nc2ccncc2)cc1` the max response, negative = inhibition was inactive: -12.6%. With `O=C(CCc1ccccc1)Nc1ccc(NC(=O)c2ccco2)cc1` the max response, negative = inhibition was inactive: -10.9%. In the case of `CCCCC1(C(=O)OCC)CC(CSC(=N)N)OC1=O` (centres undefined), the Potency is reported as inconclusive: 18.9 µM [inhibitor, single point]. `CCN(CC(=O)NCCC1=CCCCC1)S(=O)(=O)c1ccccc1` was tested, and the Potency was inconclusive: 8.44 µM [inhibitor, single point]. In the case of `COc1ccc(/C=C2/SC(=S)NC2=O)cc1OCc1ccccc1`, the Potency is reported as inconclusive: 21.2 µM [inhibitor, single point]. `COc1ccc(/C=N\NC(=S)SCN2C(=O)C3CCC(C)(C2=O)C3(C)C)cc1` (centres undefined) was tested, and the Potency was inconclusive: 26.7 µM [inhibitor, partial curve]. `CSc1cnn(-c2ccccc2)c(=O)c1SC` was tested, and the Potency was inconclusive: 37.7 µM [inhibitor, single point]. With `COc1ccc(C(C(=O)NC(C)(C)C)N(C(=O)CCC(=O)Nc2cc(C)on2)c2cccc(C)c2C)cc1` (centres undefined) the max response, negative = inhibition was inactive: -9.29%.
